# Experimental data as given in the supplement of paper PMC11006884.
# The chains behind the UniProt entries cited, without tags or fusion partners. Where a name states a change or a piece, a line headed by the entry shows the natural chain unless it says otherwise.
# UniProt Q9NPF0: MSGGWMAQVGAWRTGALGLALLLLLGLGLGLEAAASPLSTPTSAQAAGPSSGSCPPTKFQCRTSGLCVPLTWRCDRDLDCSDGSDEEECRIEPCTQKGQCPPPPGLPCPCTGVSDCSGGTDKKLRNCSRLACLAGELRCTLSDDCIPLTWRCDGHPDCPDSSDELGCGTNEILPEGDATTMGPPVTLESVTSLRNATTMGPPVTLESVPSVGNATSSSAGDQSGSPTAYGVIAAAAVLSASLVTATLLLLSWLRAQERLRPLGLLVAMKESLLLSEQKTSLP
# UniProt Q9H7N4: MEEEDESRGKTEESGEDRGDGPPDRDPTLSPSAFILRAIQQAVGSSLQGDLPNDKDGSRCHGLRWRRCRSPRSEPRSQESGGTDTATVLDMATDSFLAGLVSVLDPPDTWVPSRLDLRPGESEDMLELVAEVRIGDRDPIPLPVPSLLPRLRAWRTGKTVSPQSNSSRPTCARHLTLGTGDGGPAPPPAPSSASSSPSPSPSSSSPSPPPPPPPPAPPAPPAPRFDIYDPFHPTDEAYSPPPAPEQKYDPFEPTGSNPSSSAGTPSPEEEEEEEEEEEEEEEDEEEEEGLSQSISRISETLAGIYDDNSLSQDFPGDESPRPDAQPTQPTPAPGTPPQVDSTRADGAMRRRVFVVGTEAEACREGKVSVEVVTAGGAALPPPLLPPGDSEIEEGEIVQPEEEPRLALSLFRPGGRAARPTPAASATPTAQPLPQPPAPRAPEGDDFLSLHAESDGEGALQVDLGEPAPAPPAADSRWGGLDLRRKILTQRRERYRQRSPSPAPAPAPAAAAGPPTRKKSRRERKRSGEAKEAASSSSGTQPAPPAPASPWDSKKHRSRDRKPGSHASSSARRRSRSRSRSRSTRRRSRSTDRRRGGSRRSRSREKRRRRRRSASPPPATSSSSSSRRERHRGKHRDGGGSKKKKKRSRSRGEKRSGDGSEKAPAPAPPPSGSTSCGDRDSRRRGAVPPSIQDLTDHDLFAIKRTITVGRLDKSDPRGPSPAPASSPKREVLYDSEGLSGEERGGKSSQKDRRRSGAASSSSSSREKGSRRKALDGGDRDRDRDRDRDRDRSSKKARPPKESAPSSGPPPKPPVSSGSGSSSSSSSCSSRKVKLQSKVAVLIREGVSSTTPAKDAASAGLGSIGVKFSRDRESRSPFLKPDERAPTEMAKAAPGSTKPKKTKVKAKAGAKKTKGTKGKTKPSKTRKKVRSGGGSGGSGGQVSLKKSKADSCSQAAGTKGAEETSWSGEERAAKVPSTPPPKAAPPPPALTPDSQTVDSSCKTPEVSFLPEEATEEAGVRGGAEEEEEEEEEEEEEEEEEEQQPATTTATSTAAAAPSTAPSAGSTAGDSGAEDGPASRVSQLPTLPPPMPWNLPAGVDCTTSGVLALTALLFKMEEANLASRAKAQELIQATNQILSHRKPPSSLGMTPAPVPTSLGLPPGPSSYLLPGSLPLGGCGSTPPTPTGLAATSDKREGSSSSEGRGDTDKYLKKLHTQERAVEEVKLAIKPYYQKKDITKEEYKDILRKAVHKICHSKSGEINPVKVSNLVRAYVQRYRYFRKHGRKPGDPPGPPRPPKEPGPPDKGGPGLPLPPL
# UniProt Q9H4H8: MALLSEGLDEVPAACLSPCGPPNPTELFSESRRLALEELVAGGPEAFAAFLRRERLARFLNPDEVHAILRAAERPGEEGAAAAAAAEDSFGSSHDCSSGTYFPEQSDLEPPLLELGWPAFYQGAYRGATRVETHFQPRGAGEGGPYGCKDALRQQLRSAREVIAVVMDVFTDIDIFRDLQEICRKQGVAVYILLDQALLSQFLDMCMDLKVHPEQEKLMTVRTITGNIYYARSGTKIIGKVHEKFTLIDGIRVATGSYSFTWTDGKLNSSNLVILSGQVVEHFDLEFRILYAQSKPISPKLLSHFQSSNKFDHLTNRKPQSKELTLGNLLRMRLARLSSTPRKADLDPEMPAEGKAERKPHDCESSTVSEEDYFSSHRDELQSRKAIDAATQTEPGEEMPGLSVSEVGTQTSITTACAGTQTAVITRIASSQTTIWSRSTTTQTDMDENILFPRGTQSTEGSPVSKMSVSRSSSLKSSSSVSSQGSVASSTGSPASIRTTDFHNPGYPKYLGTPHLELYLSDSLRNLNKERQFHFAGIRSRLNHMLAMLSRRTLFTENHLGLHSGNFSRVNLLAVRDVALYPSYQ
# UniProt Q9H3H3: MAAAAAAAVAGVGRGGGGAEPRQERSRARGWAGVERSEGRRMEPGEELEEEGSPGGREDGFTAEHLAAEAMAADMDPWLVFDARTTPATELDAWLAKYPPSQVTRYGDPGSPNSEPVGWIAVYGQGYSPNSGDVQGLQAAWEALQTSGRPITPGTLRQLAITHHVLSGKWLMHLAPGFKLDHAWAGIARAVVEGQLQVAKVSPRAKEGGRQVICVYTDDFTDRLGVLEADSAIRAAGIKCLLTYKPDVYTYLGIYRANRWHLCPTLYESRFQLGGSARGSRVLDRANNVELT
# UniProt Q9H6T3, whole entry: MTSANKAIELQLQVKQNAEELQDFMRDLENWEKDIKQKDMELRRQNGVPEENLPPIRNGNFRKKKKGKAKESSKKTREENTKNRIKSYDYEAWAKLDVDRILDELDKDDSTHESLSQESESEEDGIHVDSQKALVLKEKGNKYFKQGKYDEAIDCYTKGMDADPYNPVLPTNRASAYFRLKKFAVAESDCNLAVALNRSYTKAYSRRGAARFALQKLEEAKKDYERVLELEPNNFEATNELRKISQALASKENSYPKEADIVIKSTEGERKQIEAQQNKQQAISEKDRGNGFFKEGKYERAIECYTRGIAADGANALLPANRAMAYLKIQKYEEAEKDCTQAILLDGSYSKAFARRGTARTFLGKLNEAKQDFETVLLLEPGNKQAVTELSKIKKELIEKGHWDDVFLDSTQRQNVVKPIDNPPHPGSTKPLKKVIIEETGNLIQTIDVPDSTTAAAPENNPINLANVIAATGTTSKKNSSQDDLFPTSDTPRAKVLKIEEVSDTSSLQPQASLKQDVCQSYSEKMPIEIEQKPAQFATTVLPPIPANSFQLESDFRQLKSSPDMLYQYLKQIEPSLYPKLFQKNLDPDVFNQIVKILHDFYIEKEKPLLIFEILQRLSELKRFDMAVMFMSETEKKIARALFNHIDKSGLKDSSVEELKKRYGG
# UniProt Q9HCS7: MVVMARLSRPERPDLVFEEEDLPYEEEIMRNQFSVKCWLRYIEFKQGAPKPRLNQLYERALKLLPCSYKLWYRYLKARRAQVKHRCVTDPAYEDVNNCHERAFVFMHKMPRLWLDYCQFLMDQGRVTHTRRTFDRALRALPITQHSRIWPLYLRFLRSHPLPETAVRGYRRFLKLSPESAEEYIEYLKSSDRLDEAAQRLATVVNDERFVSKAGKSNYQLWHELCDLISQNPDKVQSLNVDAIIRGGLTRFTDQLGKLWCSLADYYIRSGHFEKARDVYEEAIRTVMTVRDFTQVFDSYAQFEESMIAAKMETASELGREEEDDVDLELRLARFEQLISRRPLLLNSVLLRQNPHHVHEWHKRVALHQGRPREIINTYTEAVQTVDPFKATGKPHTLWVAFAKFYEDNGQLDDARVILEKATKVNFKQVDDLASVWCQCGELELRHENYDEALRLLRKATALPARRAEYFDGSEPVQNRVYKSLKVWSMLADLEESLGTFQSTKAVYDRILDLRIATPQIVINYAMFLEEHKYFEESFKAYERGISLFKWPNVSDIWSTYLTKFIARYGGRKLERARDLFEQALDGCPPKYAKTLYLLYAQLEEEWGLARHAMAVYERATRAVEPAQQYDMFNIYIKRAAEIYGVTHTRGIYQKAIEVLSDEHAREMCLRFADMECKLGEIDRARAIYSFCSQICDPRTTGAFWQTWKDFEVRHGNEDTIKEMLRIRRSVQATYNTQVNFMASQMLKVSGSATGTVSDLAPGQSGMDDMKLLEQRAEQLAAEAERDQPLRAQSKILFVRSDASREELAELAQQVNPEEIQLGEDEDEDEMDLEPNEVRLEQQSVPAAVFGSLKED
# UniProt Q9HC35: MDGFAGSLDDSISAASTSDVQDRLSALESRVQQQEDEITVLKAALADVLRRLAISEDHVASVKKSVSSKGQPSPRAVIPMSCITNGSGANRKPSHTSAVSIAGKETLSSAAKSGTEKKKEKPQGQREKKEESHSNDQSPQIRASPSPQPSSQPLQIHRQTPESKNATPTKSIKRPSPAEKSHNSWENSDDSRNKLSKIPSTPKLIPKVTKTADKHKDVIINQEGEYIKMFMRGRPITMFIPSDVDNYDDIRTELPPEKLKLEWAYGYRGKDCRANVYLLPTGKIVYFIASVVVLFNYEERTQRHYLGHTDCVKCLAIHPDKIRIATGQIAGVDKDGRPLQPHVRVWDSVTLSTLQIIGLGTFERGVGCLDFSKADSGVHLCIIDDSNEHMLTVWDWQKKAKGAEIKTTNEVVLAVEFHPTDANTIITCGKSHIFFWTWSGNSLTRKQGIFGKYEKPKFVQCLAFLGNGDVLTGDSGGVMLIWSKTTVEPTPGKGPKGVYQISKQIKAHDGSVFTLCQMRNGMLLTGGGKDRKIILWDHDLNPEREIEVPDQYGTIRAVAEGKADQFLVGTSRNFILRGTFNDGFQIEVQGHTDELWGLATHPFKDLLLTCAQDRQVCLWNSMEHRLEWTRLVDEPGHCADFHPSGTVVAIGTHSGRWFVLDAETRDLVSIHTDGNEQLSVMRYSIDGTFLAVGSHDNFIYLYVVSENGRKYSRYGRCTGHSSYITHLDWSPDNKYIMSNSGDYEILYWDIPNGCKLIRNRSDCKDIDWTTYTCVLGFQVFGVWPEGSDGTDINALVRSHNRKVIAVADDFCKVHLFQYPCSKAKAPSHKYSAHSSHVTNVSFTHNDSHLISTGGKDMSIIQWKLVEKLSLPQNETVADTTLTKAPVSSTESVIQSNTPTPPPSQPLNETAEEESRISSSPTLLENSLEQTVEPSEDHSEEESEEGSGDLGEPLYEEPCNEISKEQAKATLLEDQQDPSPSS
# UniProt Q9H2U2: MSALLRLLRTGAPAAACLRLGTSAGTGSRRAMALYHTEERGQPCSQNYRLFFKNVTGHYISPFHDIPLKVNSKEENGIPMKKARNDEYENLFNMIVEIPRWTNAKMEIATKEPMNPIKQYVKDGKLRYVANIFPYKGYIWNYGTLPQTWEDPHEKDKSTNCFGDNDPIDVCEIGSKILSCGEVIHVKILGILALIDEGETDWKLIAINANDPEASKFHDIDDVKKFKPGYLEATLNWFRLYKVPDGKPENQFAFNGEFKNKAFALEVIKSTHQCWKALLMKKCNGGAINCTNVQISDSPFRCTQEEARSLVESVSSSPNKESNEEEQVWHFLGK
# UniProt Q9NRP4: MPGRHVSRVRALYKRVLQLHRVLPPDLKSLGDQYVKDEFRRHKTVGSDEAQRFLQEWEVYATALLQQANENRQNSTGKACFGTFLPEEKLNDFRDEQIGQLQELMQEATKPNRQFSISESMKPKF
# UniProt Q9NSD9: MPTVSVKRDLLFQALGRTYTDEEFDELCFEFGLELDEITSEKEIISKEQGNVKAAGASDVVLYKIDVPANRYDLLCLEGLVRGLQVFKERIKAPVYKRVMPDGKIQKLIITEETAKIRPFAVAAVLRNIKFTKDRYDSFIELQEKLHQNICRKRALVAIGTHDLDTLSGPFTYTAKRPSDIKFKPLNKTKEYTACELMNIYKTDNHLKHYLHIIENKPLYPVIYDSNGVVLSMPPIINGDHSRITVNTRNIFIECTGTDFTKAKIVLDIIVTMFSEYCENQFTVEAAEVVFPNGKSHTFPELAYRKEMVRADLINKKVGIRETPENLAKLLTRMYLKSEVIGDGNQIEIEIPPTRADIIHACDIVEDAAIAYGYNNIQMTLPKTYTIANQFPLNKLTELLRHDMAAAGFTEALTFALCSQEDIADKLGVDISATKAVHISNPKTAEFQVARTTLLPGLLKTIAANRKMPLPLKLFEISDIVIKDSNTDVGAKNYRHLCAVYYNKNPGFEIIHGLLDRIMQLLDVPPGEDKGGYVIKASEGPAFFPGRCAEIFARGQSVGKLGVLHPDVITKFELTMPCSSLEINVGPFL
# UniProt Q9H668: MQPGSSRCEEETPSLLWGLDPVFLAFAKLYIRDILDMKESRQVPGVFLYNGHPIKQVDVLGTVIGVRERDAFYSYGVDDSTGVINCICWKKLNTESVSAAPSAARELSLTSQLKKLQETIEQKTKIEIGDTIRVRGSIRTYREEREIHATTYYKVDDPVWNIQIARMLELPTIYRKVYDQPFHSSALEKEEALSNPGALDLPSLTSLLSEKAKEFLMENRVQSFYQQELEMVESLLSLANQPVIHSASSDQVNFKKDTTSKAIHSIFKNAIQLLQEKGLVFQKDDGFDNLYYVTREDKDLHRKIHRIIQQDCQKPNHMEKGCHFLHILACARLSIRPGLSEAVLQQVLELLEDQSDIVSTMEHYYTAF
# The list shows a part of the results, in another mix than the full data.
# Compound: COC(=O)C#Cc1ccccc1 [methyl 3-phenylpropiolate]
# Assay: log2 ratio of iodoacetamide-alkyne labeling of the cysteine site, DMSO over compound (competition); higher = stronger covalent engagement of the cysteine by the compound, active = 1 or more
# Conditions: 500 µM; treatment time 1 h; system: HEK293T cell lysate
# Summary of the method: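 Reporter intensities give each cysteine's log2 competition ratio as the mean of control channels over the mean of compound channels. The samples were HEK293T lysate (2 mg/mL) given vehicle or electrophile (500 µM, 1 h, ambient temperature), then iodoacetamide alkyne (1 h), followed by click coupling to sCIP-TMT reagents, pooling, trypsin digestion overnight at 37 °C, streptavidin enrichment, acid elution, Orbitrap Eclipse LC-MS/MS with FAIMS and FragPipe quantification. Duplicate channels and three replicates were run, and cysteines quantified in only one replicate were discarded.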
row,Target,log2 ratio of iodoacetamide-alkyne labeling
1,GOPC C408 (UniProt Q9HD26),inactive: 0.52
2,CD320 C139 (UniProt Q9NPF0),inactive: 0.504
3,MRPS30 C316 (UniProt Q9NP92),inactive: -0.0799
4,SCAF1 C675 (UniProt Q9H7N4),inactive: 0.509
5,FAM83D C19 (UniProt Q9H4H8),active: 1.11
6,C11orf68 C222 (UniProt Q9H3H3),inactive: 0.528
7,RPAP3 C519 (UniProt Q9H6T3),inactive: 0.213
8,XAB2 C117 (UniProt Q9HCS7),inactive: 0.234
9,EML4 C82 (UniProt Q9HC35),inactive: 0.381
10,PPA2 C161 (UniProt Q9H2U2),inactive: -0.42
11,UniProt Q9NRP4_C80,inactive: 0.483
12,ZDBF2 C628 (UniProt Q9HCK1),inactive: 0.47
13,FARSB C195 (UniProt Q9NSD9),inactive: 0.621
14,XPO5 C1052 (UniProt Q9HAV4),inactive: 0.0567
15,UniProt Q9H668_C8,inactive: 0.685

# A portion from the list above, for reference:
row,Target,log2 ratio of iodoacetamide-alkyne labeling
6,C11orf68 C222 (UniProt Q9H3H3),inactive: 0.528
7,RPAP3 C519 (UniProt Q9H6T3),inactive: 0.213
